Holding throughout (assay): affinity purification with mass spectrometry
Assay [1] concerns the target DUX4_ΔTAD (human) (UniProt Q9UBX2).
The target is the same in assay [2]. This is another data set of the same source.
The next assay addresses DUX4_ΔC (human).

Sequences of proteins named here, by UniProt entry; tags and fusion partners are left off. A change or cut given only in a name is not applied to a line headed by its entry. Residues count along the entry.
UniProt Q9UBX2, residues 1-409: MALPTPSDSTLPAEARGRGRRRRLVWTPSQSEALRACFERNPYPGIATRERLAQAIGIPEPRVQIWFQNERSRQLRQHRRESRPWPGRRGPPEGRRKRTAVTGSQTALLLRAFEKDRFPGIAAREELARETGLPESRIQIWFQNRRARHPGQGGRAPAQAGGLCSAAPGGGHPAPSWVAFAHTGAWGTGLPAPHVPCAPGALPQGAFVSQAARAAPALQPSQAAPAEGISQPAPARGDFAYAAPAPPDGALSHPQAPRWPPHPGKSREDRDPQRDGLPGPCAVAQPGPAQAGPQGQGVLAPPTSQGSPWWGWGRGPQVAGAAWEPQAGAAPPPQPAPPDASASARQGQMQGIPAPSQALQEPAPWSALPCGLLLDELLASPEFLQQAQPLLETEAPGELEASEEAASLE

Where two headings read alike, the source gives them in different places. No constants are given. Whether binding was seen depends on the method and setting. Binding seen in cells or lysates may run through a third protein. Here binding means that the protein was enriched with, or labelled near, the bait; the list need not be complete.

In the case of p300 (from UniProt Q09472 1-2414), in the assay with DUX4_ΔTAD (human) [1], the binding entry is reported as “binds”.

B1: Mediator of RNA polymerase II transcription subunit 25 (MED25) (protein, UniProt Q71SY5 1-747)
chain: MVPGSEGPARAGSVVADVVFVIEGTANLGPYFEGLRKHYLLPAIEYFNGGPPAETDFGGDYGGTQYSLVVFNTVDCAPESYVQCHAPTSSAYEFVTWLDGIKFMGGGGESCSLIAEGLSTALQLFDDFKKMREQIGQTHRVCLLICNSPPYLLPAVESTTYSGCTTENLVQQIGERGIHFSIVSPRKLPALRLLFEKAAPPALLEPLQPPTDVSQDPRHMVLVRGLVLPVGGGSAPGPLQSKQPVPLPPAAPSGATLSAAPQQPLPPVPPQYQVPGNLSAAQVAAQNAVEAAKNQKAGLGPRFSPITPLQQAAPGVGPPFSQAPAPQLPPGPPGAPKPPPASQPSLVSTVAPGSGLAPTAQPGAPSMAGTVAPGGVSGPSPAQLGAPALGGQQSVSNKLLAWSGVLEWQEKPKPASVDANTKLTRSLPCQVYVNHGENLKTEQWPQKLIMQLIPQQLLTTLGPLFRNSRMVQFHFTNKDLESLKGLYRIMGNGFAGCVHFPHTAPCEVRVLMLLYSSKKKIFMGLIPYDQSGFVNGIRQVITNHKQVQQQKLEQQQRGMGGQQAPPGLGPILEDQARPSQNLLQLRPPQPQPQGTVGASGATGQPQPQGTAQPPPGAPQGPPGAASGPPPPGPILRPQNPGANPQLRSLLLNPPPPQTGVPPPQASLHHLQPPGAPALLPPPHQGLGQPQLGPPLLHPPPAQSWPAQLPPRAPLPGQMLLSGGPRGPVPQPGLQPSVMEDDILMDLI
For B1, in the assay with DUX4_ΔTAD (human) [2], the binding entry is “binds”.

B2: BANF1 (protein, UniProt O75531 1-89)
chain: MTTSQKHRDFVAEPMGEKPVGSLAGIGEVLGKKLEERGFDKAYVVLGQFLVLKKDEDLFREWLKDTCGANAKQSRDCFGCLREWCDAFL
Consider B2, for which, in the assay with DUX4_ΔC (human), the binding entry is recorded as “binds”.

B3: DnaJ homolog subfamily C member 9 (DNAJC9) (protein, UniProt Q8WXX5 1-260)
chain: MGLLDLCEEVFGTADLYRVLGVRREASDGEVRRGYHKVSLQVHPDRVGEGDKEDATRRFQILGKVYSVLSDREQRAVYDEQGTVDEDSPVLTQDRDWEAYWRLLFKKISLEDIQAFEKTYKGSEEELADIKQAYLDFKGDMDQIMESVLCVQYTEEPRIRNIIQQAIDAGEVPSYNAFVKESKQKMNARKRRAQEEAKEAEMSRKELGLDEGVDSLKAAIQSRQKDRQKEMDNFLAQMEAKYCKSSKGGGKKSALKKEKK
In the case of B3, the binding result with DUX4_ΔC (human) is “binds”.

Values taken from doi:10.1101/2023.09.12.557395.
